Results as given in paper doi:10.1101/719815 (bioRxiv, 2019).
Numbering of substitutions follows the chain as printed. Where two headings read alike, the source gives them in different places. No constants are given. Whether binding was seen depends on the method and setting. Binding seen in cells or lysates may run through a third protein. Some entries that bind do so weakly or less than the wild type. For some of these results: Sequences can lack the tags named with a protein. Blank lines part the entries; values can stand above or below the binder they belong to.

Columns and labels:
Assay in all cases: split reporter
[1] = molecular target: T1, Cdc24 extended by the Cub-RUra3 module (Cdc24CRU) (yeast) (UniProt P11433)
T1 sequence: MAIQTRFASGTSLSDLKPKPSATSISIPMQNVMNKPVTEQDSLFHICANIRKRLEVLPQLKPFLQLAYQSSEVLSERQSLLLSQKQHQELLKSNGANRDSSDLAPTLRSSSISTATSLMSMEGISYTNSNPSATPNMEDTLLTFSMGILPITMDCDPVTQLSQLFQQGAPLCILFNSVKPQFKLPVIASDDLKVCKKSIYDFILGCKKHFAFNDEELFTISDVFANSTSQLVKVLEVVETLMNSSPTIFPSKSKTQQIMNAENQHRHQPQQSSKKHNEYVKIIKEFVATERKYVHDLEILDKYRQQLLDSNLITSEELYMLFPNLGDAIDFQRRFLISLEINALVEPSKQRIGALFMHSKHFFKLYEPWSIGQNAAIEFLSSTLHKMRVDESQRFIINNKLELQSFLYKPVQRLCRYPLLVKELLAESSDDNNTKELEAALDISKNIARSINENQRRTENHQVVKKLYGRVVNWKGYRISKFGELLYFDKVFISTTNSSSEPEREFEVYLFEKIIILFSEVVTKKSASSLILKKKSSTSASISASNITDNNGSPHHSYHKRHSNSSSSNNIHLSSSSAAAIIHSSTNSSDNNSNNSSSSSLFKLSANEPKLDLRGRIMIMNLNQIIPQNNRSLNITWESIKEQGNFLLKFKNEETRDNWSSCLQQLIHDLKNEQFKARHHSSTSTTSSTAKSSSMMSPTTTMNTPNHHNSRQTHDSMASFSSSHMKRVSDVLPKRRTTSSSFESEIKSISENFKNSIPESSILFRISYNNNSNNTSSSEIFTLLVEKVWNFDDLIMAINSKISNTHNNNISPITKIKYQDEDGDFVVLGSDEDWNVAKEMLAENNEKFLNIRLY

[2] = molecular target: T1, Cdc24 extended by the Cub-RUra3 module (Cdc24CRU) (yeast); remark: listed apart in the source
[3] = molecular target: T1, Cdc24 extended by the Cub-RUra3 module (Cdc24CRU) (yeast); remark: listed apart in the source
Cdc24KKCRU (yeast) = molecular target: T2, Cdc24KKCRU (yeast) (UniProt P11433)
T2 sequence: T1 sequence with K525E, K801A

[4] = molecular target: T3, Cdc24_(755-854)CRU (yeast) (UniProt P11433)
T3 sequence: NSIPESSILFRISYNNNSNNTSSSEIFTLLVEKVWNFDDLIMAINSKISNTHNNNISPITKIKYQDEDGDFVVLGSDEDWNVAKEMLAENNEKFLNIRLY

[5] = molecular target: T4, CDC24_(428-759)CRU (yeast) (UniProt P11433)
T4 sequence: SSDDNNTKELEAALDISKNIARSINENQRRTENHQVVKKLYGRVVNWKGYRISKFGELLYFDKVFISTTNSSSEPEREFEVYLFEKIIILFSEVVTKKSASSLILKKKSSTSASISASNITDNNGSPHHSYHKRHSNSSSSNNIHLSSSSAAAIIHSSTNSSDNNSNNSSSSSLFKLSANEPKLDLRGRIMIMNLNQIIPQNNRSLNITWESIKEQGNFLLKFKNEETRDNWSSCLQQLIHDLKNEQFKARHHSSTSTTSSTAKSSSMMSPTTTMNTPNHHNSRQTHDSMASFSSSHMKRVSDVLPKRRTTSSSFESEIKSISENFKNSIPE

[6] = molecular target: T5, Cdc24_(428-854)CRU (yeast) (UniProt P11433)
T5 sequence: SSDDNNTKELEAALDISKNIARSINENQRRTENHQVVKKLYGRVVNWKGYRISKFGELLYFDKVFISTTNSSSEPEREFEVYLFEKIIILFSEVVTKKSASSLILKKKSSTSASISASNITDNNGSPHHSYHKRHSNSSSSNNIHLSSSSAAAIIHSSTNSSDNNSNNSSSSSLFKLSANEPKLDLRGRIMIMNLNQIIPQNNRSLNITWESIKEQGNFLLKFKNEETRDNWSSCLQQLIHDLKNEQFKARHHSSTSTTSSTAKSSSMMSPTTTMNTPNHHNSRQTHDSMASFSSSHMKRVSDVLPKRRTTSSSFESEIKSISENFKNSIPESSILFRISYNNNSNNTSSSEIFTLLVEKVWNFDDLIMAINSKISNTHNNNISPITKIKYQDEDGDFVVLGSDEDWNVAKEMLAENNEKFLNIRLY

- binding [1]: binds
B1: Nub fusion to Cdc11 lacking the N-terminal five residues (domain or fragment, UniProt P32458 6-415)
chain: DASSALRKRKHLKRGITFTVMIVGQSGSGRSTFINTLCGQQVVDTSTTILLPTDTSTEIDLQLREETVELEDDEGVKIQLNIIDTPGFGDSLDNSPSFEIISDYIRHQYDEILLEESRVRRNPRFKDGRVHCCLYLINPTGHGLKEIDVEFIRQLGSLVNIIPVISKSDSLTRDELKLNKKLIMEDIDRWNLPIYNFPFDEDEISDEDYETNMYLRTLLPFAIIGSNEVYEMGGDVGTIRGRKYPWGILDVEDSSISDFVILRNALLISHLHDLKNYTHEILYERYRTEALSGESVAAESIRPNLTKLNGSSSSSTTTRRNTNPFKQSNNINNDVLNPASDMHGQSTGENNETYMTREEQIRLEEERLKAFEERVQQELLLKRQELLQREKELREIEARLEKEAKIKQEE

- binding [2]: binds
B2: Nub-Rga2 (protein, UniProt Q06407 1-1009)
chain: MSADPINDQSSLCVRCNKSIASSQVYELESKKWHDQCFTCYKCDKKLNADSDFLVLDIGTLICYDCSDKCTNCGDKIDDTAIILPSSNEAYCSNCFRCCRCSNRIKNLKYAKTKRGLCCMDCHEKLLRKKQLLLENQTKNSSKEDFPIKLPERSVKRPLSPTRINGKSDVSTNNTAISKNLVSSNEDQQLTPQVLVSQERDESSLNDNNDNDNSKDREETSSHARTVSIDDILNSTLEHDSNSIEEQSLVDNEDYINKMGEDVTYRLLKPQRANRDSIVVKDPRIPNSNSNANRFFSIYDKEETDKDDTDNKENEIIVNTPRNSTDKITSPLNSPMAVQMNEEVEPPHGLALTLSEATKENNKSSQGIQTSTSKSMNHVSPITRTDTVEMKTSTSSSTLRLSDNGSFSRPQTADNLLPHKKVAPSPNKKLSRSFSLKSKNFVHNLKSKTSEMLDPKHPHHSTSIQESDTHSGWGVSSTHTNIRKSKAKKNPVSRGQSDSTIYNTLPQHGNFTVPEFNHKKAQSSLGSISKKQNSNDTATNRRINGSFTSSSSGHHIAMFRTPPLESGPLFKRPSLSSESAHHRSSSLQTSRSTNALLEDDSTKVDATDESATSLEKDFYFTELTLRKLKLDVRELEGTKKKLLQDVENLRLAKERLLNDVDNLTREKDKQSASSRESLEQKENIATSITVKSPSSNSDRKGSISNASPKPRFWKIFSSAKDHQVGDLESQQRSPNSSSGGTTNIAQKEISSPKLIRVHDELPSPGKVPLSPSPKRLDYTPDGSHLYGSSLQARCAYEKSTVPIIIRCCIDRIEKDDIGLNMEGLYRKSGSQTLVEEIENEFAQNNSLHSDTLSPKLNALLNQDIHAVASVLKRYLRKLPDPVLSFSIYDALIDLVRNNQLIERLPLNNDKFLDSPQKVTIYEMVLKSLLEIFKILPVEHQEVLKVLAAHIGKVRRCSERNLMNLHNLSLVFAPSLIHDFDGEKDIVDMKERNYIVEFILGNYRDIFKQA

- binding [3]: binds
- binding (Cdc24KKCRU (yeast)): binds
- binding [4]: binds
- binding [5]: no binding
- binding [6]: binds
B3: Nub-Bem1 (protein, UniProt P29366 1-551)
chain: MLKNFKLSKRDSNGSKGRITSADISTPSHDNGSVIKHIKTVPVRYLSSSSTPVKSQRDSSPKNRHNSKDITSPEKVIKAKYSYQAQTSKELSFMEGEFFYVSGDEKDWYKASNPSTGKEGVVPKTYFEVFDRTKPSSVNGSNSSSRKVTNDSLNMGSLYAIVLYDFKAEKADELTTYVGENLFICAHHNCEWFIAKPIGRLGGPGLVPVGFVSIIDIATGYATGNDVIEDIKSVNLPTVQEWKSNIARYKASNISLGSVEQQQQQSITKPQNKSAKLVDGELLVKASVESFGLEDEKYWFLVCCELSNGKTRQLKRYYQDFYDLQVQLLDAFPAEAGKLRDAGGQWSKRIMPYIPGPVPYVTNSITKKRKEDLNIYVADLVNLPDYISRSEMVHSLFVVLNNGFDREFERDENQNNIKTLQENDTATFATASQTSNFASTNQDNTLTGEDLKLNKKLSDLSLSGSKQAPAQSTSGLKTTKIKFYYKDDIFALMLKGDTTYKELRSKIAPRIDTDNFKLQTKLFDGSGEEIKTDSQVSNIIQAKLKISVHDI
